US20060019262
Where a chain is given by its changes, count along the chain named. The exact form of at least one protein or probe is not confirmed. A negative result means that nothing was seen under these conditions. Protein sequences can lack the tags named with them. For some of these results: Weaker means in comparison with the reference protein, sequence or condition of that experiment.

Legend:
[1] = target: T1, APOBEC1 (Rattus norvegicus) (UniProt P38483); assay: enzyme reaction in vitro; settings: purified recombinant protein, label: 5'-biotin
T1 sequence (looked up, limits assumed): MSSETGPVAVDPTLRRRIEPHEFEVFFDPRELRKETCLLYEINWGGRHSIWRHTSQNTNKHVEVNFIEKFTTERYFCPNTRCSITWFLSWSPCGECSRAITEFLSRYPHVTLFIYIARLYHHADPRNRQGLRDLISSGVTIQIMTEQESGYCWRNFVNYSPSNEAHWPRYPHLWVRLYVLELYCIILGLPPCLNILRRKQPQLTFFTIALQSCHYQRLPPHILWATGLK

[2] = target: T2, APOBEC1 E63A (Rattus norvegicus) (UniProt P38483); assay: enzyme reaction in vitro; settings: no deamination, Zn-coordination motif mutant; purified recombinant protein; label: 5'-biotin, 3'-fluorescein or 3'-32P-ddA; single-stranded DNA
T2 sequence (looked up, limits assumed): T1 sequence (looked up, limits assumed) with E63A

[3] = 5' pyrimidine context, assignment from text rule, 3' label, single-stranded DNA
[4] = deamination disfavoured with purine 5' of C, assignment from text rule, 3' label, single-stranded DNA

Row | Sequence | activity on this sequence [1, 3] | activity on this sequence [1, 4] | other results
1 | ATTATTGTTATTATCAATTTGTTTATTTGTTTATTTATTT [oligo with ATCA context] | active | – | –
2 | ATTATTATTATTCCGCGGATTTATTTATTTATTTATTTATTT [SPM168] | – | – | activity on this sequence ([1]; dC deamination by UDG assay, buffer R, 37 C, EDTA, third C of TCCGCG much less favoured, 3'-fluorescein or 3'-32P-ddA, single-stranded DNA): active; activity on this sequence [2]: not active
3 | ATTATTGTTATTAACTATTTGTTTATTTGTTTATTTATTT [oligo with AACT context] | – | less active | –
4 | ATTATTATTATTAGCTATTTATTTATTTATTTATTTATTT [oligo with AGC context] | – | less active | –
5 | ATTATTGTTATTATCGATTTGTTTATTTGTTTATTTATTT [oligo with ATCG context] | active | – | –
6 | ATTATTATTATTCCGCGGATTTATTTATTTATTTATTTATTT (double strand) [SPM168 duplex with complement] | – | – | activity on this sequence ([1]; activity blocked by complementary oligonucleotide, not by irrelevant one, 3' label, variant of SPM168): not active
